Results published in US5003011A (The Administrators of the Tulane Educational Fund, priority 1989, dated 1991).

Assay: general procedure: Boc solid-phase peptide synthesis; benzhydrylamine resin
Conditions: whole synthesis, scale 0.5 mmole

## N-Ac-D-β-Nal-D-Phe-D-Phe-Ser-Try-D-Arg-Phe-Arg-Pro-D-Ala
  isolated mass: 117 mg
